This list holds what a sample rich in hits left over. Records with an inconclusive call do not appear. Active and inactive are the calls of the source. How the source made its calls: active means hit-call score of the fitted dose curve at least 0.9, where 1 is the maximum; inconclusive means response in the unintended direction; inactive means score below 0.9.
Assay: ACEA_AR_agonist_AUC_viability: ACEA Biosciences xCELLigence Real-Time Cell Analysis on Androgen Receptor Agonism for Viability (AID 2283775)
How it was run: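 Real-time impedance tracking of 22Rv1 growth, readings every 5 min for 5 h then hourly; area-under-curve viability endpoint at 80 hours, relative to DMSO. Compounds at eight concentrations, 1:4 steps, top 100 uM, n = 2.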

Structure (SMILES)	outcome
CCCCC(CC)COC(C)=O (stereo not given)	inactive
CC(C)=CCCC(C)=CC#N	inactive
C=C1C[C@]23C[C@@]1(O)CC[C@H]2[C@@]12C=C[C@H](O)[C@@](C)(C(=O)O1)[C@H]2[C@@H]3C(=O)O	inactive
CC(=O)OCC(COC(C)=O)OC(C)=O	inactive
C=CC(C)(O)CCC=C(C)C (stereo not given)	inactive
Oc1ccccc1Cc1ccccc1O	inactive
CCC(=O)OC(C)(C)C1CC=C(C)CC1 (stereo not given)	inactive
COC(=O)c1ccc(C)cc1C1=NC(C)(C(C)C)C(=O)N1 (stereo not given) (tested in a mixture with another compound)	inactive
CCCC1CCC(=O)O1 (stereo not given)	inactive
C(=C(c1ccccc1)c1ccccc1)c1ccccc1	inactive
O=C(c1ccccc1)C(O)c1ccccc1 (stereo not given)	inactive
CC/C=C\CCO	inactive
CCCCCCCCCCCCCCCC(=O)O	inactive
COCCOCCOCCOC	inactive
Cc1ccc(N/N=c2\c(=O)cc/c(=N/Nc3ccc(S(=O)(=O)O)cc3)c2=O)c(C)c1	inactive
CCCCCCOC(=O)CCCCC(=O)OCCCCCC	inactive
O=C(Cl)c1cccc(C(=O)Cl)c1	inactive
C1CCCNCC1	inactive
O=C(O)c1cccc(C(=O)O)n1	inactive
CCCCCCCCCCOS(=O)(=O)O	inactive
O=S(=O)(O)c1cc(S(=O)(=O)O)c2c(N=Nc3ccccc3)c(O)ccc2c1	inactive
Cn1c([N+](=O)[O-])cnc1COC(N)=O	inactive
CC1=NN(c2cc(Cl)c(S(=O)(=O)O)cc2Cl)C(=O)C1N=Nc1ccc(S(=O)(=O)O)cc1 (stereo not given)	inactive
O=S(=O)(O)c1ccc2ccccc2c1	inactive
ON=C1CCCCC1	inactive

From PubChem BioAssay (EPA / NIEHS)
